# Reference: the supplement of paper PMC8728848
# Some of the results follow.
# B1: EfCBM33A (Enterococcus faecalis), Q838S1 (protein)
# chain: MKKSLLTIVLAFSFVLGGAALAPTVSEAHGYVASPGSRAFFGSSAGGNLNTNVGRAQWEPQSIEAPKNTFITGKLASAGVSGFEPLDEQTATRWHKTNITTGPLDITWNLTAQHRTASWDYYITKNGWNPNQPLDIKNFDKIASIDGKQEVPNKVVKQTINIPTDRKGYHVIYAVWGIGDTVNAFYQAIDVNIQ
# Key:
# Assay in all cases: glycan array binding signal (z-score within array); higher = stronger binding
# Conditions in all cases: glycan notation: IUPAC condensed, linker removed
# [1] = target: Neu5Ac(a2-6)GlcNAc(b1-4)GlcNAc(b1-4)GlcNAc
# Method in brief: (§1)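 The binding signal is a Z-score computed within each array and averaged over linkers. Arrays of the same protein sequence at different concentrations or buffers were also averaged together. Data originate from 3228 arrays in the Consortium for Functional Glycomics database, kept only where the protein sequence was available.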
# Neu5Ac(a2-8)Neu5Ac = target: Neu5Ac(a2-8)Neu5Ac
# Method in brief: as §1
# [2] = target: Neu5Ac(a2-8)Neu5Ac(a2-3)Gal(b1-3)GalNAc(b1-4)[Neu5Ac(a2-3)]Gal(b1-4)Glc
# Method in brief: as §1
# [3] = target: Neu5Ac(a2-8)Neu5Ac(a2-3)Gal(b1-3)GalNAc(b1-4)[Neu5Ac(a2-8)Neu5Ac(a2-3)]Gal(b1-4)Glc
# Method in brief: as §1
# [4] = target: Neu5Ac(a2-8)Neu5Ac(a2-3)Gal(b1-4)Glc
# Method in brief: as §1
# [5] = target: Neu5Ac(a2-8)Neu5Ac(a2-3)Gal(b1-4)GlcNAc
# Method in brief: as §1
# [6] = target: Neu5Ac(a2-8)Neu5Ac(a2-3)[Gal(b1-3)GalNAc(b1-4)]Gal(b1-4)Glc
# Method in brief: as §1
# [7] = target: Neu5Ac(a2-8)Neu5Ac(a2-3)[GalNAc(b1-4)]Gal(b1-4)Glc
# Method in brief: as §1
# [8] = target: Neu5Ac(a2-8)Neu5Ac(a2-8)Neu5Ac
# Method in brief: as §1
# [9] = target: Neu5Ac(a2-8)Neu5Ac(a2-8)Neu5Ac(a2-3)Gal(b1-4)Glc
# Method in brief: as §1
# [10] = target: Neu5Ac(a2-8)Neu5Ac(a2-8)Neu5Ac(a2-3)[Gal(b1-3)GalNAc(b1-4)]Gal(b1-4)Glc
# Method in brief: as §1
# [11] = target: Neu5Ac(a2-8)Neu5Ac(a2-8)Neu5Ac(a2-3)[GalNAc(b1-4)]Gal(b1-4)Glc
# Method in brief: as §1
# [12] = target: Neu5Ac(a2-8)Neu5Ac(a2-8)Neu5Ac(a2-8)Neu5Ac(a2-3)[GalNAc(b1-4)]Gal(b1-4)Glc
# Method in brief: as §1
# [13] = target: Neu5Ac(a2-8)Neu5Gc(a2-3)Gal(b1-4)GlcNAc
# Method in brief: as §1
# [14] = target: Neu5Ac(b2-6)Gal(b1-4)GlcNAc
# Method in brief: as §1
# Neu5Ac(b2-6)GalNAc = target: Neu5Ac(b2-6)GalNAc
# Method in brief: as §1
# [15] = target: Neu5Ac9Ac(a2-3)Gal(b1-3)GlcNAc
# Method in brief: as §1
# [16] = target: Neu5Ac9Ac(a2-3)Gal(b1-4)GlcNAc
# Method in brief: as §1
# [17] = target: Neu5Ac9Ac(a2-6)Gal(b1-4)GlcNAc
# Method in brief: as §1
# [18] = target: Neu5Gc(a2-3)Gal(b1-3)GlcNAc
# Method in brief: as §1
# [19] = target: Neu5Gc(a2-3)Gal(b1-3)[Fuc(a1-4)]GlcNAc
# Method in brief: as §1
# Neu5Gc(a2-3)Gal(b1-4)Glc = target: Neu5Gc(a2-3)Gal(b1-4)Glc
# Method in brief: as §1
# [20] = target: Neu5Gc(a2-3)Gal(b1-4)GlcNAc
# Method in brief: as §1
# [21] = target: Neu5Gc(a2-3)Gal(b1-4)GlcNAc(b1-3)Gal(b1-4)GlcNAc(b1-2)Man(a1-3)[Neu5Gc(a2-3)Gal(b1-4)GlcNAc(b1-3)Gal(b1-4)GlcNAc(b1-2)Man(a1-6)]Man(b1-4)GlcNAc(b1-4)GlcNAc
# Method in brief: as §1
# [22] = target: Neu5Gc(a2-3)Gal(b1-4)[Fuc(a1-3)]GlcNAc
# Method in brief: as §1
# [23] = target: Neu5Gc(a2-6)Gal(b1-4)GlcNAc
# Method in brief: as §1
# Neu5Gc(a2-6)GalNAc = target: Neu5Gc(a2-6)GalNAc
# Method in brief: as §1
# [24] = target: Neu5Gc(a2-8)Neu5Ac(a2-3)Gal(b1-4)GlcNAc
# Method in brief: as §1
# [25] = target: Neu5Gc(a2-8)Neu5Gc(a2-3)Gal(b1-4)GlcNAc
# Method in brief: as §1
# [26] = target: Neu5Gc(a2-8)Neu5Gc(a2-3)Gal(b1-4)GlcNAc(b1-3)Gal(b1-4)GlcNAc
# Method in brief: as §1
# [27] = target: Neu5Gc(a2-8)Neu5Gc(a2-6)Gal(b1-4)GlcNAc
# Method in brief: as §1
# [28] = target: Neu5Gc(b2-6)Gal(b1-4)GlcNAc
# Method in brief: as §1
binder,measurement,setting,value
B1,glycan array binding signal (z-score),[1],-0.944
same,glycan array binding signal (z-score),Neu5Ac(a2-8)Neu5Ac,-0.561
same,glycan array binding signal (z-score),[2],1.18
same,glycan array binding signal (z-score),[3],-0.396
same,glycan array binding signal (z-score),[4],-0.426
same,glycan array binding signal (z-score),[5],0.799
same,glycan array binding signal (z-score),[6],-0.505
same,glycan array binding signal (z-score),[7],0.518
same,glycan array binding signal (z-score),[8],0.016
same,glycan array binding signal (z-score),[9],-0.635
same,glycan array binding signal (z-score),[10],-0.429
same,glycan array binding signal (z-score),[11],-1.41
same,glycan array binding signal (z-score),[12],-0.254
same,glycan array binding signal (z-score),[13],-0.601
same,glycan array binding signal (z-score),[14],-0.199
same,glycan array binding signal (z-score),Neu5Ac(b2-6)GalNAc,-0.971
same,glycan array binding signal (z-score),[15],1.28
same,glycan array binding signal (z-score),[16],1.53
same,glycan array binding signal (z-score),[17],-0.482
same,glycan array binding signal (z-score),[18],0.529
same,glycan array binding signal (z-score),[19],1.23
same,glycan array binding signal (z-score),Neu5Gc(a2-3)Gal(b1-4)Glc,-0.711
same,glycan array binding signal (z-score),[20],0.624
same,glycan array binding signal (z-score),[21],-0.417
same,glycan array binding signal (z-score),[22],0.222
same,glycan array binding signal (z-score),[23],-1.26
same,glycan array binding signal (z-score),Neu5Gc(a2-6)GalNAc,-0.798
same,glycan array binding signal (z-score),[24],-1.95
same,glycan array binding signal (z-score),[25],-1.75
same,glycan array binding signal (z-score),[26],-0.844
same,glycan array binding signal (z-score),[27],-0.736
same,glycan array binding signal (z-score),[28],1.82

# Reprinted from the results shown for reference:
binder,measurement,setting,value
B1,glycan array binding signal (z-score),[21],-0.417
same,glycan array binding signal (z-score),[22],0.222
